In article PMC12431657, “Discovery and mechanistic insights of dibenzoylmethane as a broad spectrum inhibitor of coronavirus” (PLOS Pathogens, 2025):
Counter-ions that a name gives are not always drawn. Like-named read-outs stand apart in the source and are kept apart here. The whole screen tested about 3,300 compounds, of which about 60 (2%) showed an effect of 50% or more. Some of the results follow.

Test system: HCoV-OC43
Design: species or system RD; HTS, protection from HCoV-OC43 induced cell death, luminescent cell viability (CellCounting-Lite 2.0), inhibition rate
Details: 24 h post infection, 1 h compound pre-incubation, 10 µM, inhibitor

Row | Compound | OC43 Inhibition rate [%] | OC43 Inhibition rate (OC43 Inhibition rate, 24 h) [%]
1 | O=c1cc(-c2ccc(O)c(O)c2)oc2cc(O)cc(O)c12 [Luteolin] | 3.8 | 
2 | C[C@H](CCC(=O)O)[C@H]1CC[C@H]2[C@@H]3C=CC4=CC(=O)CC[C@]4(C)[C@H]3CC[C@]12C [3-Oxo-4,6-choladien-24-oic acid] | -0.1 | 
3 | C[C@H](CCC(=O)NCC(=O)O)[C@H]1CC[C@H]2[C@@H]3CC[C@@H]4C[C@H](O)CC[C@]4(C)[C@H]3C[C@H](O)[C@]12C [Glycodeoxycholic acid (monohydrate)] |  | -0.8
4 | CCCCC1OC(=O)C2=CCCCC21 (stereo not shown) [Sedanolide] | -0.1 | 
5 | COc1ccc(/C=C/C(=O)O)cc1 [4-Methoxycinnamic acid] |  | -0.5
6 | O=C(Nc1ccccc1)Nc1ccnc(Cl)c1 [Forchlorfenuron] | -2.5 | 
7 | O=C1C[C@@H](c2ccc(O)cc2)Oc2cc(O[C@@H]3O[C@H](CO)[C@@H](O)[C@H](O)[C@H]3O[C@@H]3OC[C@](O)(CO)[C@H]3O)ccc21 [Liquiritigenin-7-O-β-D-glucopyranosyl-(1→2)-β-D-apiofuranoside] | -0.7 | 
8 | CO[C@H]1O[C@@H]2O[C@@]3(C)CC[C@H]4[C@H](C)CC[C@@H]([C@H]1C)[C@@]24OO3 [Artemether] | -2.1 | 
9 | NC(COP(=O)(O)O)C(=O)O (racemic) [DL-O-Phosphoserine] | -1.4 | 
10 | O=C(O)C/C=C/CC(=O)O [Trans-2-butene-1,4-dicarboxylic acid] | 2.7 | 
11 | O=c1c2ccccc2oc2ccccc12 [Xanthone] | 4.7 | 
12 | COc1cc(OC)c2c(=O)cc(-c3ccc(OC)c(OC)c3)oc2c1 [5,7,3',4'-Tetramethoxyflavone] | 0 | 
13 | COc1c(O[C@@H]2O[C@H](CO)[C@@H](O)[C@H](O)[C@H]2O)cc2occ(-c3ccc(O)cc3)c(=O)c2c1O [Tectoridin] | 25.2 | 
14 | C=CC1(C)CCC(C(C)(C)O)O1 (stereo not shown) [Linalool oxide] | -0.1 | 
15 | O=c1cc(-c2ccc(O)c(O)c2)oc2c([C@@H]3O[C@H](CO)[C@@H](O)[C@H](O)[C@H]3O[C@H]3O[C@@H](CO)[C@@H](O)[C@@H](O)[C@@H]3O)c(O)cc(O)c12 [2"-O-beta-L-galactopyranosylorientin] | 1.4 | 
16 | CC(=O)[C@H]1CC[C@H]2[C@@H]3CC=C4C[C@@H](OS(=O)(=O)O)CC[C@]4(C)[C@H]3CC[C@]12C [Pregnenolone monosulfate (sodium)] | 0.1 | 
17 | C[C@@H]1O[C@@H](OCCC(=O)O)[C@H](O)C[C@H]1O [Ascr#5] | 0.5 | 
18 | CSCCC(=O)O [3-(Methylthio)propionic acid] | -2 | 
19 | CC(C)=CC(=O)O[C@H]1Cc2cc3ccc(=O)oc3cc2OC1(C)C [Decursin] | -0.3 | 
20 | CC=C1[C@H](O[C@@H]2O[C@H](CO)[C@@H](O)[C@H](O)[C@H]2O)OC=C(C(=O)OC)[C@H]1CC(=O)OC[C@H]1O[C@@H](OCCc2ccc(O)cc2)[C@H](O)[C@@H](O)[C@@H]1O (stereo in doubt) [Specnuezhenide] | 1 | 

Row | Compound | OC43 Inhibition rate [%] | OC43 Inhibition rate (OC43 Inhibition rate, 24 h) [%]
21 | CCOCC(=O)O [Ethoxyacetic acid] | -3.2 | 
22 | CCCCCCCC/C=C\CCCCCCCCCCCCCC(=O)O [Nervonic acid] | -2.1 | 
23 | O=c1c(O)c(-c2ccc(O)c(O)c2)oc2cc(O[C@@H]3O[C@H](CO)[C@@H](O)[C@H](O)[C@H]3O)c(O)c(O)c12 [Quercetagitrin] | 1.8 | 
24 | NCC(=O)O [Glycine] | 6.5 | 
25 | COC(=O)C(O)CC(C)C (stereo not shown) [Methyl 2-hydroxy-4-methylvalerate] | -0.2 | 
26 | CC/C=C\CCO [cis-3-Hexen-1-ol] | -0.4 | 
27 | CC(C)=CCC[C@](C)(O[C@@H]1O[C@H](CO)[C@@H](O)[C@H](O)[C@H]1O)[C@H]1CC[C@]2(C)[C@@H]1[C@H](O)C[C@@H]1[C@@]3(C)CC[C@H](O[C@@H]4O[C@H](CO)[C@@H](O)[C@H](O)[C@H]4O)C(C)(C)[C@@H]3CC[C@]12C [Ginsenoside F2] | -0.9 | 
28 | O=C1OC[C@H]2OC(O)[C@H](O)[C@@H](O)[C@@H]2OC(=O)c2cc(O)c(O)c(O)c2-c2c(O)c(O)c3oc(=O)c4c(c(O)c(O)c5oc(=O)c2c3c54)-c2c1cc(O)c(O)c2O (mixture of isomers) [Punicalin] | -0.6 | 
29 | CCc1ccc(O)cc1O [4-Ethylresorcinol] | -0.1 | 
30 | CCCCCCCCCCCCCCCC(=O)NCCO [Palmitoylethanolamide] | -0.2 | 
31 | CC1(C)CC[C@]2(C(=O)O)CC[C@]3(C)C(=CC[C@@H]4[C@@]5(C)CC[C@H](O[C@@H]6O[C@H](C(=O)O)[C@@H](O)[C@H](O[C@@H]7OC[C@@H](O)[C@H](O)[C@H]7O[C@@H]7O[C@H](CO)[C@@H](O)[C@H](O)[C@H]7O)[C@H]6O)C(C)(C)[C@@H]5CC[C@]43C)[C@@H]2C1 [Oleanolic acid-3-O-glucosyl(1-2)xylyl(1-3)glucosiduronic acid] | -0.1 | 
32 | C[C@H]1CC[C@]2(NC1)O[C@H]1C[C@H]3[C@@H]4CC[C@H]5C[C@@H](O[C@@H]6O[C@H](CO)[C@H](O[C@@H]7O[C@H](CO)[C@@H](O)[C@H](O[C@@H]8OC[C@@H](O)[C@H](O)[C@H]8O)[C@H]7O[C@@H]7O[C@H](CO)[C@@H](O)[C@H](O)[C@H]7O)[C@H](O)[C@H]6O)CC[C@]5(C)[C@H]4CC[C@]3(C)[C@H]1[C@@H]2C [Tomatine] | 2 | 
33 | CC(C)(S)[C@@H](N)C(=O)O [Penicillamine] | -0.5 | 
34 | C[C@H](CC[C@@H](O[C@@H]1O[C@H](CO)[C@@H](O)[C@H](O)[C@H]1O[C@@H]1O[C@H](CO)[C@@H](O)[C@H](O)[C@H]1O)C(C)(C)O)[C@H]1CC[C@@]2(C)[C@@H]3CC=C4[C@@H](CC[C@H](O[C@@H]5O[C@H](CO)[C@@H](O)[C@H](O)[C@H]5O)C4(C)C)[C@]3(C)[C@H](O)C[C@]12C [Mogroside III-E] | 2.2 | 
35 | Cc1ncc(C[n+]2csc(CCO)c2C)c(N)n1 [Thiamine monochloride] |  | 2.4
36 | O=c1cccccc1 [Tropone] | -0.5 | 
37 | CN1[C@H]2C[C@H](OC(=O)[C@H](CO)c3ccccc3)C[C@@H]1[C@@H](O)C2 [Anisodamine (hydrobromide)] |  | -0.1
38 | CC(=O)c1ccc(O)cc1C [4′-Hydroxy-2′-methylacetophenone] | 2.7 | 
39 | COc1cc2c(c(OC)c1OC)-c1c(cc3c(c1OC)OCO3)C[C@H](C)[C@@](C)(O)C2 [Schisandrol B] | -0.2 | 
40 | O=C(CO)CO [1,3-Dihydroxyacetone] | 0.1 | 

3 structures out of the list, ordered by number of heavy atoms, falling.
Row | Compound | OC43 Inhibition rate [%] | OC43 Inhibition rate (OC43 Inhibition rate, 24 h) [%]
37 | CN1[C@H]2C[C@H](OC(=O)[C@H](CO)c3ccccc3)C[C@@H]1[C@@H](O)C2 [Anisodamine (hydrobromide)] |  | -0.1
29 | CCc1ccc(O)cc1O [4-Ethylresorcinol] | -0.1 | 
40 | O=C(CO)CO [1,3-Dihydroxyacetone] | 0.1 | 

The listing continues.

Row | Compound | OC43 Inhibition rate [%] | OC43 Inhibition rate (OC43 Inhibition rate, 24 h) [%]
41 | C=C(C)[C@@H]1CC[C@]2(C)CC[C@]3(C)[C@H](CC[C@@H]4[C@@]5(C)CCC(=O)C(C)(C)[C@@H]5CC[C@]43C)[C@@H]12 [Lupenone] | -1.5 | 
42 | Cn1c(=O)c2c(ncn2CC(=O)O)n(C)c1=O [Acefylline] | 0 | 
43 | CC(=O)N[C@@H](CC(=O)O)C(=O)O [N-Acetyl-L-aspartic acid] | -0.4 | 
44 | O=C1O[C@H](CO)[C@@H](O)[C@H](O)[C@H]1O [D-(+)-Glucono-1,5-lactone] | -0.8 | 
45 | COc1cc2c(cc1O)C[C@H]1c3c(cc(O)c(OC)c3-2)CCN1C [Boldine] | -0.3 | 
46 | N[C@@H](CCC(=O)N[C@@H](CS)C(=O)O)C(=O)O [Gamma-glutamylcysteine] | 2 | 
47 | OC[C@@H](O)C(O)[C@H](O)CO [D-Arabitol] | 0.1 | 
48 | O=C1CCCCC1=O [1,2-Cyclohexanedione] | 0.8 | 
49 | CCCCC(C)CCC(=O)O (stereo not shown) [4-Methyloctanoic acid] | -0.5 | 
50 | CC(=O)N[C@@H](CCC(N)=O)C(=O)O [Aceglutamide] | -0.8 | 
51 | COc1cc(O)c2c(=O)c(O)c(-c3ccc(O)c(O)c3)oc2c1 [Rhamnetin] | 8.3 | 
52 | O=C1c2c(O)cc(O)cc2O[C@H](c2ccc(O)cc2)[C@H]1O [Dihydrokaempferol] | 1.5 | 
53 | OC[C@H]1O[C@@H](Oc2cc(O)ccc2/C=C/c2cc(O)cc(O)c2)[C@H](O)[C@@H](O)[C@@H]1O [Oxyresveratrol 2-O-β-D-glucopyranoside] | 2.1 | 
54 | CC(/C=C/C=C(\C)C(=O)O)=C\C=C\C=C(C)\C=C\C=C(/C)C(=O)O [Crocetin] |  | 5.6
55 | O=C[C@H](O)[C@@H](O)[C@@H](CO)O[C@@H]1OC[C@@H](O[C@@H]2OC[C@@H](O[C@@H]3OC[C@@H](O[C@@H]4OC[C@@H](O)[C@H](O)[C@H]4O)[C@H](O)[C@H]3O)[C@H](O)[C@H]2O)[C@H](O)[C@H]1O [1,4-b-D-Xylopentaose] | 6 | 
56 | OC[C@H]1OC(O[C@H]2[C@H](O)[C@@H](CO)OC(O[C@H]3[C@H](O)[C@@H](CO)OC(O)[C@@H]3O)[C@@H]2O)[C@H](O)[C@@H](O)[C@@H]1O (stereo partly shown) [Laminaran] | -0.3 | 
57 | C[C@@H]([C@H](C)O)[C@H](N)C(=O)O [(2S,3R,4S)-4-Hydroxyisoleucine] | -1.8 | 
58 | C/C(=C\C(=O)CC(C)C(=O)O)[C@H]1C[C@H](O)[C@@]2(C)C3=C(C(=O)C[C@]12C)[C@@]1(C)CCC(=O)C(C)(C)[C@@H]1C[C@@H]3O (stereo partly shown) [Ganoderenic acid A] | -0.5 | 
